Assay results taken from paper PMC8133776.
These are yes or no findings as the source states them, for the method shown. Binding seen in cells or lysates may run through a third protein. Some binding calls cover weakened binding; strength is not graded here. Where a sequence is shown, tags or fusion partners need not be part of it.

The chains behind the UniProt entries cited, without tags or fusion partners.
UniProt Q9U1H9: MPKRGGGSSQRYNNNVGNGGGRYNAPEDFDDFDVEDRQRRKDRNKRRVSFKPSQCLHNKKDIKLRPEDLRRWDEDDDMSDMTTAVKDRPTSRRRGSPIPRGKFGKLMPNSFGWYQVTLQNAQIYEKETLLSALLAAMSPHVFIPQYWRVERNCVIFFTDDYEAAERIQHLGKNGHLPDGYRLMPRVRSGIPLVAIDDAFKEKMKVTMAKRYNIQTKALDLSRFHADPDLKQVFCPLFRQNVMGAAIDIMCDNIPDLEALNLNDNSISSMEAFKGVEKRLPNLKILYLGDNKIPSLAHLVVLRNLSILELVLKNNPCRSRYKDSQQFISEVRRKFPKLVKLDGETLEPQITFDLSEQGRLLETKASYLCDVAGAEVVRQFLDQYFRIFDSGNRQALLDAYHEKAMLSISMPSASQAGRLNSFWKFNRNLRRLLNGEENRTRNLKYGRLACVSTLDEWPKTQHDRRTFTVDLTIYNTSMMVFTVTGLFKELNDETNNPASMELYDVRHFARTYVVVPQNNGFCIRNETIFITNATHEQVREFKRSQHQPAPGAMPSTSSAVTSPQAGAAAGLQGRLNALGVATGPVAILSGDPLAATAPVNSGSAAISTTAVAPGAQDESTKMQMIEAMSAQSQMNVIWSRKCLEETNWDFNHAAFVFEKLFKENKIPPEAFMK

Legend:
[1] = biological target: T1, 3xFLAG-tagged Nup58 (Drosophila melanogaster) (UniProt Q9VDV3); assay: co-IP; S2 cells transfected with 3xFLAG- and HA-tagged constructs, lysed after 48 hr in Pierce IP lysis buffer; anti-FLAG M2 magnetic beads overnight at 4°C, washes 3 x 15 min in TBS; western blot
T1 sequence: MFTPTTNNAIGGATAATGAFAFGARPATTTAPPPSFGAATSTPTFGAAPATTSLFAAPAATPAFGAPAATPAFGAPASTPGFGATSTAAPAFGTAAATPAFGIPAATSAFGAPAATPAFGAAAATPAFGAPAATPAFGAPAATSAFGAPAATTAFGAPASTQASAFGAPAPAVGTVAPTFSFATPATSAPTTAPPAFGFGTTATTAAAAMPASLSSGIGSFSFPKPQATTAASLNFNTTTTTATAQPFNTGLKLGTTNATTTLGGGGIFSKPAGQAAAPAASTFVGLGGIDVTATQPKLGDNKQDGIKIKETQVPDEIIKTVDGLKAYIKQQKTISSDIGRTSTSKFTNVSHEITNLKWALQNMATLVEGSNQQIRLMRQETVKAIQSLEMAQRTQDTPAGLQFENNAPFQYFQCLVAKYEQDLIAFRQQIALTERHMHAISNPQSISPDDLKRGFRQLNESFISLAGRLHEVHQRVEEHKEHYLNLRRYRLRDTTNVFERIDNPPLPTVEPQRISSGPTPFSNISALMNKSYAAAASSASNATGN

[2] = biological target: T2, 3xFLAG-tagged Nup54 (Drosophila melanogaster) (UniProt Q9V6B9); assay: as above
T2 sequence: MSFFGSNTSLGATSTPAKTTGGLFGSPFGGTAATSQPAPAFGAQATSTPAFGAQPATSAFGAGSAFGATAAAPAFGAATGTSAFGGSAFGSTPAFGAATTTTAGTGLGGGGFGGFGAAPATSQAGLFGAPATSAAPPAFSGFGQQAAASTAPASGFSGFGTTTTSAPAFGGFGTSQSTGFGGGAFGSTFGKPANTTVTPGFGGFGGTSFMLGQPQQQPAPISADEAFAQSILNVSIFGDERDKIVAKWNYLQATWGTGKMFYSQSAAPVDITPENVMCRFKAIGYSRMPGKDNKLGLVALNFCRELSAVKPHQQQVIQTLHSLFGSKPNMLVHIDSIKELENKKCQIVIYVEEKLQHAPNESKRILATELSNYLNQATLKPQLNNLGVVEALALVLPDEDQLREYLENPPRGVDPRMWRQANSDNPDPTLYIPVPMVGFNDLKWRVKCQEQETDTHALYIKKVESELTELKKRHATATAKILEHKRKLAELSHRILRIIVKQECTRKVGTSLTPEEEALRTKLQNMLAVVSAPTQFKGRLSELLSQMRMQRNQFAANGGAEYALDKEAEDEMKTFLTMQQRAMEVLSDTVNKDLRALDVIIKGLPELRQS

Molecule | binding [1] | binding [2]
HA-tagged Nxf1 (from UniProt Q9U1H9 1-672) | binds | binds
HA-tagged FL Nup58 (protein, UniProt Q9VDV3 1-546) MFTPTTNNAIGGATAATGAFAFGARPATTTAPPPSFGAATSTPTFGAAPATTSLFAAPAATPAFGAPAATPAFGAPASTPGFGATSTAAPAFGTAAATPAFGIPAATSAFGAPAATPAFGAAAATPAFGAPAATPAFGAPAATSAFGAPAATTAFGAPASTQASAFGAPAPAVGTVAPTFSFATPATSAPTTAPPAFGFGTTATTAAAAMPASLSSGIGSFSFPKPQATTAASLNFNTTTTTATAQPFNTGLKLGTTNATTTLGGGGIFSKPAGQAAAPAASTFVGLGGIDVTATQPKLGDNKQDGIKIKETQVPDEIIKTVDGLKAYIKQQKTISSDIGRTSTSKFTNVSHEITNLKWALQNMATLVEGSNQQIRLMRQETVKAIQSLEMAQRTQDTPAGLQFENNAPFQYFQCLVAKYEQDLIAFRQQIALTERHMHAISNPQSISPDDLKRGFRQLNESFISLAGRLHEVHQRVEEHKEHYLNLRRYRLRDTTNVFERIDNPPLPTVEPQRISSGPTPFSNISALMNKSYAAAASSASNATGN |  | binds
HA-tagged FL Nup54 (protein, UniProt Q9V6B9 1-610) MSFFGSNTSLGATSTPAKTTGGLFGSPFGGTAATSQPAPAFGAQATSTPAFGAQPATSAFGAGSAFGATAAAPAFGAATGTSAFGGSAFGSTPAFGAATTTTAGTGLGGGGFGGFGAAPATSQAGLFGAPATSAAPPAFSGFGQQAAASTAPASGFSGFGTTTTSAPAFGGFGTSQSTGFGGGAFGSTFGKPANTTVTPGFGGFGGTSFMLGQPQQQPAPISADEAFAQSILNVSIFGDERDKIVAKWNYLQATWGTGKMFYSQSAAPVDITPENVMCRFKAIGYSRMPGKDNKLGLVALNFCRELSAVKPHQQQVIQTLHSLFGSKPNMLVHIDSIKELENKKCQIVIYVEEKLQHAPNESKRILATELSNYLNQATLKPQLNNLGVVEALALVLPDEDQLREYLENPPRGVDPRMWRQANSDNPDPTLYIPVPMVGFNDLKWRVKCQEQETDTHALYIKKVESELTELKKRHATATAKILEHKRKLAELSHRILRIIVKQECTRKVGTSLTPEEEALRTKLQNMLAVVSAPTQFKGRLSELLSQMRMQRNQFAANGGAEYALDKEAEDEMKTFLTMQQRAMEVLSDTVNKDLRALDVIIKGLPELRQS | binds | 
